From PMC5841295 come the findings set out here.

Sequences of proteins named here, by UniProt entry; tags and fusion partners are left off. A change or cut given only in a name is not applied to a line headed by its entry.
UniProt Q07812: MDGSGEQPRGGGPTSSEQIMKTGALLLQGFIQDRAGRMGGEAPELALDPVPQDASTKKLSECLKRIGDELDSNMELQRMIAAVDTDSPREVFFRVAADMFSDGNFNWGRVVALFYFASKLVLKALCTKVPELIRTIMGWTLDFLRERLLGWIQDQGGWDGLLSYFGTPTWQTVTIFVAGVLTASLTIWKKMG

The assay deals with GST-Bax (UniProt Q07812). The assay can be described thus: pull-down; recombinant GST-Bax and MBP-Bid-HA applied to Glutathione sepharose 4B beads, washed with OG buffer (10 mM TrisHCl pH 7.4, 150 mM NaCl, 0.1% octyl glycoside); first elution with purified PLEKHN1 (and Bax) or control buffer, second elution with 30 mM reduced glutathione; both purified.

Results are given in words; binding and its absence hold for the method and conditions named. A result given as binding can be weak or reduced; the word gives no strength. Sequences can lack the tags named with a protein.

B1: MBP-Bid-HA (protein, UniProt P55957 1-195)
chain: MDCEVNNGSSLRDECITNLLVFGFLQSCSDNSFRRELDALGHELPVLAPQWEGYDELQTDGNRSSHSRLGRIEADSESQEDIIRNIARHLAQVGDSMDRSIPPGLVNGLALQLRNTSRSEEDRNRDLATALEQLLQAYPRDMEKEKTMLVLALLLAKKVASHTPSLLRDVFHTTVNFINQNLRTYVRSLARNGMD
As for B1, the binding entry is given as “binds”.
